Measurements taken from publication PMC6158030.
No constants are given. Whether binding was seen depends on the method and setting. Binding can be weak; no strength is given. Where a sequence is shown, tags or fusion partners need not be part of it. For some assays here: In cells and extracts the contact can be indirect.

Legend:
[1] = biological target: T1, GST-PID1 fusion protein (murine phosphotyrosine interacting domain-containing protein 1) (mouse) (UniProt Q3UBG2); experiment: pull-down; GST-PID1 incubated over night at 4 °C with liver lysates (150 μg) of wild type, LRP1 knockin or liver-specific Lrp1-/- mice; washed six times with PBS; Western blot; only the target purified
T1 sequence: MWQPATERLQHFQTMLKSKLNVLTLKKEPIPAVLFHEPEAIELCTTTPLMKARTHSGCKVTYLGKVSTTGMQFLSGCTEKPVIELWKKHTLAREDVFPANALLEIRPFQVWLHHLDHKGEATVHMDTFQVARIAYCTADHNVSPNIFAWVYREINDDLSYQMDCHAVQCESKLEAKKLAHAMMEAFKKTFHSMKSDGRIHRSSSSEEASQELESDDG

[2] = biological target: T1, GST-PID1 fusion protein (murine phosphotyrosine interacting domain-containing protein 1) (mouse); experiment: pull-down; GST-PID1 on Glutathion Sepharose with recombinant wild type and mutant LRP1-ICDs; pellets washed six times with PBS; Western blot of pulldown and unbound fractions; both purified

binding [1]	binding [2]	Substance
binds		LDL receptor-related protein 1 (LRP1), endogenous in wild type mouse liver
no binding		LRP1 with a mutated distal NPxY motif, endogenous in liver of LRP1 knockin mice (mouse (endogenous in liver)) (receptor)
	no binding	LRP1-ICD lacking both functional NPxY domains (N1/2) (domain or fragment)
	no binding	LRP1-ICD lacking the functional distal NPxY domain (N2) (domain or fragment)
	binds	LRP1-ICD lacking the functional proximal NPxY domain (N1) (domain or fragment)
